{"sequences": {"note": "The chains behind the UniProt entries cited, without tags or fusion partners.", "UniProt O60678": "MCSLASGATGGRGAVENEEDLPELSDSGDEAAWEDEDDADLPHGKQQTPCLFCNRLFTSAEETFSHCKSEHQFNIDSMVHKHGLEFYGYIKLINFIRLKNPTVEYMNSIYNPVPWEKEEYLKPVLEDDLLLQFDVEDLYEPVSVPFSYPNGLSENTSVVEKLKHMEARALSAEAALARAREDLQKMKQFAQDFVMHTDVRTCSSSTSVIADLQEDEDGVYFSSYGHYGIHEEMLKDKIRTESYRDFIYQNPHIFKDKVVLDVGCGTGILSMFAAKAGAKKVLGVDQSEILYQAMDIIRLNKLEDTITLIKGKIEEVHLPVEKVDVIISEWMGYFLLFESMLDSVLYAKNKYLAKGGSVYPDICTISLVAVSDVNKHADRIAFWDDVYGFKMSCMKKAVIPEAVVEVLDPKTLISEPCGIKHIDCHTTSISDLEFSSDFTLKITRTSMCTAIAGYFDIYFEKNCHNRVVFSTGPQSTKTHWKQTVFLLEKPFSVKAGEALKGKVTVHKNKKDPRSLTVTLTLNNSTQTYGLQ", "UniProt P04406": "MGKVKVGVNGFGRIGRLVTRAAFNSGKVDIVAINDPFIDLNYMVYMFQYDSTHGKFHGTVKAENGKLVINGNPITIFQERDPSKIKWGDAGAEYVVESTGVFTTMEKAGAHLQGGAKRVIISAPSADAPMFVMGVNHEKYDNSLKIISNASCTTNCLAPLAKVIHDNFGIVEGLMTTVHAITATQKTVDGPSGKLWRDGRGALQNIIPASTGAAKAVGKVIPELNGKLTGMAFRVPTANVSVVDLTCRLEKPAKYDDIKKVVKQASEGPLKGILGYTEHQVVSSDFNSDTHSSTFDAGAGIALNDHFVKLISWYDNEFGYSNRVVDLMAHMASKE"}, "source": "paper PMC6642535", "target": "Green fluorescent protein (GFP)-tagged PRMT3 (protein arginine methyltransferase 3) (UniProt O60678)", "assay": "affinity purification with mass spectrometry; GFP-PRMT3 immunoprecipitated with GFP antibody from GFP-PRMT3-overexpressing PANC-1 cells; in-solution trypsin digestion; mass spectrometry", "note": "No constants are given. Whether binding was seen depends on the method and setting. In cells and extracts the contact can be indirect. A yes stands for co-enrichment or nearness to the bait. Other partners may have been found."}
{"substance": "glucose-6-phosphate isomerase (G6PI) (from UniProt P06744 1-558) (enzyme)", "values": [{"measurement": "binding", "result": "binds"}]}
{"substance": "glyceraldehyde-3-phosphate dehydrogenase (GAPDH), endogenous (from UniProt P04406 1-335) (enzyme)", "values": [{"measurement": "binding", "result": "binds"}]}
